Experimental findings from publication PMC7057672 are described below.

Protein sequences, listed by entry. Tags and fused reporters are not part of them. Lines headed by an entry give the natural chain unless they say otherwise; changes in a name come on top.
UniProt Q07133: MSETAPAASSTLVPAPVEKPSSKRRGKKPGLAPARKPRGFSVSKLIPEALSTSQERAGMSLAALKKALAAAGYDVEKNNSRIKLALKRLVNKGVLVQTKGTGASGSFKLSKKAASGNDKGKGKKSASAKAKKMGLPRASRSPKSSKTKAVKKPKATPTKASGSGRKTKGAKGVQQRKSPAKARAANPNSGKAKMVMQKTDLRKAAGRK
UniProt P83917: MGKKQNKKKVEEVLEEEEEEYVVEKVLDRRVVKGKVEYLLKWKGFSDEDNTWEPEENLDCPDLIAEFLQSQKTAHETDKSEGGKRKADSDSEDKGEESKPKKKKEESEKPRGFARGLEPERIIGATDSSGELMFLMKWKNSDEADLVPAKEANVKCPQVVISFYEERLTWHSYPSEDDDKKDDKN
UniProt P23198: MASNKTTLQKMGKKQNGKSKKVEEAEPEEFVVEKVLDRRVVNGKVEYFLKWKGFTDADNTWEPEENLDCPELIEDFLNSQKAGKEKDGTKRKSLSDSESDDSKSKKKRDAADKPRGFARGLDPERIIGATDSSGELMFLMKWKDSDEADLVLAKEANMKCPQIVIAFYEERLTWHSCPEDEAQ
UniProt P17156: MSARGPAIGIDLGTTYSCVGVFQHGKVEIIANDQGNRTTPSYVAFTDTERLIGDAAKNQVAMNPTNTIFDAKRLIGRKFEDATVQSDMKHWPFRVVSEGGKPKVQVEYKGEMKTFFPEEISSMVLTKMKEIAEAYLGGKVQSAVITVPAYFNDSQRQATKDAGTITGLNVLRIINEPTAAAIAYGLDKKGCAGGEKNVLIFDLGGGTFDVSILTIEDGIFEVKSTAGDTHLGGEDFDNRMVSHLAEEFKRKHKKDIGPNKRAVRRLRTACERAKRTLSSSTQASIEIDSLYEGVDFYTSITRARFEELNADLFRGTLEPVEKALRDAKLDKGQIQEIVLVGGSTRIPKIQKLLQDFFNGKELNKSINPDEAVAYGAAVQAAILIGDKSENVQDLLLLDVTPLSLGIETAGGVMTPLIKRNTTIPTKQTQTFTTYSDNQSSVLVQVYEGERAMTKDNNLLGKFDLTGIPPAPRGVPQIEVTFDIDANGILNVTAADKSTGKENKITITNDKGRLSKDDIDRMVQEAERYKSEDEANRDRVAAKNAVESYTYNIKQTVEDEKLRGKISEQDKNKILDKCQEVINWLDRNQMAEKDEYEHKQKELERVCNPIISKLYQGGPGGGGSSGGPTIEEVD
UniProt Q61937: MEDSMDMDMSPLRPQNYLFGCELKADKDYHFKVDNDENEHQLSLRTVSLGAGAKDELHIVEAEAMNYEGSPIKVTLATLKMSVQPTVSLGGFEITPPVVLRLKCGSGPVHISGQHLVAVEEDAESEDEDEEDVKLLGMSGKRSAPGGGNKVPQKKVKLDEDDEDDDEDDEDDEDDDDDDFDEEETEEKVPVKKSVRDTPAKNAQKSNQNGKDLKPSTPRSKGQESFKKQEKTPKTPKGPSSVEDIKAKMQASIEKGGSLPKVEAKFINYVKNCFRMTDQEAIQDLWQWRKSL
UniProt Q9JMB7: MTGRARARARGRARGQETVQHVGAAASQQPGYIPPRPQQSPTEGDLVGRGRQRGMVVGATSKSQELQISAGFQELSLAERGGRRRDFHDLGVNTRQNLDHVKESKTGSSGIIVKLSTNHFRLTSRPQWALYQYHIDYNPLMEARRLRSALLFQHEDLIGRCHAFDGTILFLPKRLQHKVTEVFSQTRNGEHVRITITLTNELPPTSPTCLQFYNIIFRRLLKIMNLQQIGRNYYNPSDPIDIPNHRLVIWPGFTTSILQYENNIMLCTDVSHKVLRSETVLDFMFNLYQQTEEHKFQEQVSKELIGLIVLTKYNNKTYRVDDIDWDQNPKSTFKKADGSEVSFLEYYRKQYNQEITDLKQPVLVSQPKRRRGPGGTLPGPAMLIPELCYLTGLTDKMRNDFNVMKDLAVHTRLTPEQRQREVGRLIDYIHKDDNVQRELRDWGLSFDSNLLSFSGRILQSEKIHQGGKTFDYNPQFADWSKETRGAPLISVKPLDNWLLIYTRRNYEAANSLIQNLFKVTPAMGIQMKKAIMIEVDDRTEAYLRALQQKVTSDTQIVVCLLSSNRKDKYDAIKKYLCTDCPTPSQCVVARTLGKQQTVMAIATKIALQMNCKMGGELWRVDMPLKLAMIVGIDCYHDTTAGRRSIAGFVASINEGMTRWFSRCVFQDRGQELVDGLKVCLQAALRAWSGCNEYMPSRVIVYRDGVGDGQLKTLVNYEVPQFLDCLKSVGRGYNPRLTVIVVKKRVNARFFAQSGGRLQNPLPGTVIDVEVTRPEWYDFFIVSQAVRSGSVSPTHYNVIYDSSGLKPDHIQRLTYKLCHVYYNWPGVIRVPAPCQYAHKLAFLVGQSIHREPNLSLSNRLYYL

No constants are given. Whether binding was seen depends on the method and setting. Binding seen in cells or lysates may run through a third protein. Some entries that bind do so weakly or less than the wild type.

The target in the assay is linker histone variant H1t (mouse (endogenous in P20 mouse testicular cells)) (UniProt Q07133). In words: co-IP; ChIP-western / oligonucleosome IP: formaldehyde-crosslinked, sonicated chromatin of P20 mouse testicular cells; IP with anti-H1t, anti-H3K9me3, anti-H4K20me3 or anti-H3K4me3; non-specific IgG isotype control; eluate probed by western blotting. Background: In western blotting, separated proteins are transferred to a membrane and probed.
Consider HP1β (from UniProt P83917 1-185), for which the binding result is given as “binds”. For HP1γ (from UniProt P23198 1-183) the value was “binds”; for Hspa2 (from UniProt P17156 1-633), “binds”; for Npm1 (from UniProt Q61937 1-292), “binds”.

On to Piwil1 (from UniProt Q9JMB7 1-862), for which the binding result is “binds”.
